PubChem BioAssay AID743454, Peter MacCallum Cancer Centre | 2014
In all, the deposit lists about 18,000 reagents; below is a part drawn at random. In the full data, 450 (2.5%) are marked active. 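Single biological run; no consistent viability z cut-off exists, so the class columns, not z-scores, define the calls.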

- Purpose: 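Knock-downs lowering viability or raising caspase 3/7 activity in vorinostat-treated resistant cells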 (primary screen)
- Cell system: human HCT116-VR colon cancer cells, selected for vorinostat resistance
- Knock-down reagent: siRNA pool against human genes, 40 nM siRNA pool
- Duration: vorinostat for 24 h, read-out about 72 h after transfection
- Conditions: vorinostat at 2.5 µM final
- Measured: 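Two measures, CellTiter-Fluor viability and luminescent caspase 3/7 activity, each as fold change against same-plate mock wells, mean of duplicates, then screen-wide robust z-score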
- Direction: viability robust z-score: higher = more viable cells than screen typical; caspase robust z-score: higher = more caspase 3/7 activity than screen typical
- Call rule: 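a knock-down is a hit when classed RV1 or RV2 for lowered viability, or CA1 or CA2 for caspase activation; those lethal without drug were dropped; hits were retested singly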

| viability hit class | caspase hit class | viability robust z-score | caspase robust z-score | activity call | gene |
| --- | --- | --- | --- | --- | --- |
| no change | no change | -1.9 | 1.05 | inactive | SLC7A6OS |
| no change | no change | 0.85 | -0.29 | inactive | CTSD (cathepsin D) |
| no change | no change | -1.29 | -0.64 | inactive | SDE2 (spliceosome associated SDE2) |
| no change | no change | -0.18 | -0.84 | inactive | CDK5RAP3 (CDK5 regulatory subunit associated protein 3) |
| no change | no change | -0.55 | -1.35 | inactive | ZFX (zinc finger protein X-linked) |
| no change | no change | -1.36 | -0.74 | inactive | MUC16 (mucin 16, cell surface associated) |
| no change | no change | 0.06 | 0.02 | inactive | SPATA6L (spermatogenesis associated 6 like) |
| no change | no change | -0.09 | 2.42 | inactive | TIMM17B (translocase of inner mitochondrial membrane 17B) |
| no change | no change | -0.02 | 0.53 | inactive | RO60 (Ro60, Y RNA binding protein) |
| no change | no change | -0.82 | 0.21 | inactive | TGOLN2 (trans-golgi network protein 2) |
| no change | no change | -0.38 | 2.51 | inactive | TNFSF13B (TNF superfamily member 13b) |
| no change | no change | -0.76 | 0.31 | inactive | IL22 (interleukin 22) |
| no change | no change | -0.42 | -0.23 | inactive | PLP1 (proteolipid protein 1) |
| no change | no change | -0.74 | -0.84 | inactive | HGD (homogentisate 1,2-dioxygenase) |
| no change | no change | 0.72 | 0.76 | inactive | TTC39C (tetratricopeptide repeat domain 39C) |
| no change | no change | 0.4 | -0.86 | inactive | VCX (variable charge X-linked) |
| no change | no change | 1.82 | 0.81 | inactive | PODXL (podocalyxin like) |
| no change | no change | -1.16 | 1.65 | inactive | TRA2B (transformer 2 beta homolog) |
| no change | no change | -0.4 | 1.23 | inactive | RABL2B (RAB, member of RAS oncogene family like 2B) |
| no change | no change | 1.21 | 0.4 | inactive | TET2 (tet methylcytosine dioxygenase 2) |
| no change | no change | -0.67 | -0.88 | inactive | F11R (F11 receptor) |
| no change | no change | -0.8 | 0.91 | inactive | OR7G1 (olfactory receptor family 7 subfamily G member 1) |
| no change | no change | -0.46 | 2.97 | inactive | PI4K2B (phosphatidylinositol 4-kinase type 2 beta) |
| no change | no change | -1.06 | 2.24 | inactive | SACK1H (scaffolding CK1 anchoring protein H) |
| no change | no change | 0.59 | 0.03 | inactive | ABTB3 (ankyrin repeat and BTB domain containing 3) |
| no change | no change | -0.33 | 0.24 | inactive | CYP4Z1 (cytochrome P450 family 4 subfamily Z member 1) |
| no change | no change | 0.11 | 0.28 | inactive | IGF2BP1 (insulin like growth factor 2 mRNA binding protein 1) |
| no change | no change | 0.89 | 3.64 | inactive | PLCXD1 |
| no change | no change | 0.2 | -1.17 | inactive | SCRN3 (secernin 3) |
| no change | no change | -0.01 | 0.3 | inactive | DNAL4 (dynein axonemal light chain 4) |
| no change | no change | 0.12 | -0.75 | inactive | FKBP9 (FKBP prolyl isomerase 9) |
| no change | no change | 1.38 | 2.04 | inactive | ANKRD16 (ankyrin repeat domain 16) |
| no change | no change | 0.32 | -0.02 | inactive | MORF4L2 (mortality factor 4 like 2) |
| no change | no change | 0.03 | -0.72 | inactive | SCAI (suppressor of cancer cell invasion) |
| no change | no change | 1.34 | 0.69 | inactive | BABAM1 (BRISC and BRCA1 A complex member 1) |
| no change | no change | 0.08 | 3.05 | inactive | DHRS13 (dehydrogenase/reductase 13) |
| no change | no change | -0.98 | 2.12 | inactive | MRPS17 (mitochondrial ribosomal protein S17) |
| no change | no change | 0.84 | -0.68 | inactive | BCAT1 (branched chain amino acid transaminase 1) |
| no change | no change | -0.14 | 3.72 | inactive | PSMD10 (proteasome 26S subunit, non-ATPase 10) |
| no change | no change | 0.57 | -0.83 | inactive | LZIC (leucine zipper and CTNNBIP1 domain containing) |
| no change | no change | 0.86 | -0.14 | inactive | LOC642678 (retired record) |
| no change | no change | -0.88 | 0.41 | inactive | NDUFS3 (NADH:ubiquinone oxidoreductase core subunit S3) |
| no change | no change | 0.43 | -0.72 | inactive | ADARB2 (adenosine deaminase RNA specific B2 (inactive)) |
| no change | no change | 0.2 | -0.91 | inactive | MTARC2 (mitochondrial amidoxime reducing component 2) |
| no change | no change | -0.76 | -0.56 | inactive | ANP32B (acidic nuclear phosphoprotein 32 family member B) |
| no change | no change | -0.71 | 1.11 | inactive | AVL9 (AVL9 cell migration associated) |
| no change | no change | 0.54 | -0.13 | inactive | GIMAP2 (GTPase, IMAP family member 2) |
| no change | no change | 1.24 | 0.31 | inactive | ITGA9 (integrin subunit alpha 9) |
| no change | no change | -0.27 | -0.24 | inactive | CLPTM1 (CLPTM1 regulator of GABA type A receptor forward trafficking) |
| no change | no change | 1.88 | -0.09 | inactive | ICE2 (interactor of little elongation complex ELL subunit 2) |
| no change | no change | -1.6 | 0.25 | inactive | SRD5A1 (steroid 5 alpha-reductase 1) |
| no change | no change | -1.22 | 1 | inactive | MESP2 (mesoderm posterior bHLH transcription factor 2) |
| no change | no change | -0.07 | 1.63 | inactive | UQCC3 (ubiquinol-cytochrome c reductase complex assembly factor 3) |
| no change | no change | 0.32 | 1.36 | inactive | CIMIP6 (ciliary microtubule inner protein 6) |
| no change | no change | 0.33 | 1.66 | inactive | RANBP6 (RAN binding protein 6) |
| no change | no change | -0.52 | 1.52 | inactive | BLVRA (biliverdin reductase A) |
| no change | no change | -0.87 | -1.1 | inactive | C16orf78 (chromosome 16 open reading frame 78) |

Individual results from above.
CYP4Z1 (cytochrome P450 family 4 subfamily Z member 1), caspase hit class → no change
SDE2 (spliceosome associated SDE2), viability robust z-score → -1.29
CDK5RAP3 (CDK5 regulatory subunit associated protein 3), caspase hit class → no change
